Laboratory results published in patent publication US10066025B2, “Compositions and methods for detecting, treating and preventing diseases and disorders” (YALE UNIVERSITY, priority 2012, dated 2018).
At least one structure is not confirmed: it was looked up by name or label, or the drawing left a doubt.

Test system: systemic blood pressure
Assay: Blood pressure and heart rate in anesthetized mice
Format: in vivo
Settings: WT mice
Experimental: As in 14A, except that RP-H220 is injected; no significant changes in blood pressure (FIG. 14B). Effect of a single intravenous injection of RP-220 (squares) and RP-H220 (diamonds) on heart rate in wild type mice (FIG. 14C).
FIG. 21 depicts the results of experiments examining the effect of RP-220 injection on blood pressure. A single subcutaneous injection of RP-220 (n=3) or buffer (n=2) in anesthetized wild type mice; BP pressure is recorded continuously; RP-220 is given at time 0; each data point represents the mean pressure; the standard error of the means are shown.
Systolic and diastolic pressure and heart rate were measured in anesthetized mice as previously described (Desir et al., 2012, J Am Heart Assoc. 1:e002634).

CN1CCc2cc(Cl)c(O)cc2[C@@H](c2ccccc2)C1 [SCH23390, reference compound]
effect of D1 receptor blocker pretreatment on hypotensive effect of RP-220: did not counteract the hypotensive effect of RP-220
